PubChem BioAssay AID1224831 – NIAID, 2016
In all, the deposit lists about 3,500 reagents; shown is an unselected part. 731 of all reagents (21%) count as active. 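Active means either lowered or raised reporter signal; the gene-median score did not drive the per-siRNA calls.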 Entries without a mark were called inactive. Reagents against one gene are numbered here.

Aim: 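Retesting screen hits on the TLR4-driven TNF response with six separate siRNAs each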 (follow-up of hits)
Cell system: human THP-1 B5 monocytic leukaemia cells carrying a TNF promoter luciferase reporter, made macrophage-like with PMA
Reagent: single siRNA against human genes, 50 nM
Timing: about 68 h of knock-down, then 4 h LPS
Conditions: LPS (Salmonella minnesota, TLR-grade) at 10 ng/ml for 4 h; PMA 5 ng/ml present during knock-down
Detection: 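TNF promoter reporter read as dual luciferase ratio after 4 h LPS, normalised per plate to its median, given as replicate mean robust z-score per siRNA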
Scale: TNF reporter z-score: higher = stronger LPS-induced TNF reporter signal; z-score, median over gene's siRNAs: higher = stronger TNF reporter signal across the gene's siRNAs
Active means: 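Active when the replicate mean z-score is about -1 or lower, or about 1.5 or higher; lowered and raised TNF reporter signal both count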
Meaning of the calls: active = changed TNF reporter (either direction); inactive = little change

Target gene,siRNA no.,"TNF reporter z-score, replicate mean","z-score, median over gene's siRNAs"
ZNF300 (zinc finger protein 300),1,0.81,0.54
ZNF300 (zinc finger protein 300),2,-0.02,0.54
ZNF300 (zinc finger protein 300),3,-0.17,0.54
ZNF300 (zinc finger protein 300),4,0.33,0.54
ZNF300 (zinc finger protein 300),5,0.75,0.54
ZNF300 (zinc finger protein 300),6,0.9,0.54
FNBP1L (formin binding protein 1 like),1,-0.73,0.475
FNBP1L (formin binding protein 1 like),2,0.79,0.475
FNBP1L (formin binding protein 1 like),3,0.16,0.475
FNBP1L (formin binding protein 1 like),4,1.15,0.475
FNBP1L (formin binding protein 1 like),5,2.08 (active),0.475
FNBP1L (formin binding protein 1 like),6,0.16,0.475
"GMDS (GDP-mannose 4,6-dehydratase)",1,0.55,0.38
"GMDS (GDP-mannose 4,6-dehydratase)",2,0.57,0.38
"GMDS (GDP-mannose 4,6-dehydratase)",3,0.13,0.38
"GMDS (GDP-mannose 4,6-dehydratase)",4,-0.25,0.38
"GMDS (GDP-mannose 4,6-dehydratase)",5,0.21,0.38
"GMDS (GDP-mannose 4,6-dehydratase)",6,0.82,0.38
LRRC40 (leucine rich repeat containing 40),1,0.76,-0.24
LRRC40 (leucine rich repeat containing 40),2,-0.53,-0.24
LRRC40 (leucine rich repeat containing 40),3,-0.18,-0.24
LRRC40 (leucine rich repeat containing 40),4,-0.3,-0.24
LRRC40 (leucine rich repeat containing 40),5,-1.06 (active),-0.24
LRRC40 (leucine rich repeat containing 40),6,1.93 (active),-0.24
VPS25 (vacuolar protein sorting 25 homolog),1,-0.66,0.16
VPS25 (vacuolar protein sorting 25 homolog),2,1.2,0.16
VPS25 (vacuolar protein sorting 25 homolog),3,0.54,0.16
VPS25 (vacuolar protein sorting 25 homolog),4,0.69,0.16
VPS25 (vacuolar protein sorting 25 homolog),5,-0.52,0.16
VPS25 (vacuolar protein sorting 25 homolog),6,-0.22,0.16

In a second layout: results already given
Target gene | siRNA no. | TNF reporter z-score, replicate mean | z-score, median over gene's siRNAs
LRRC40 (leucine rich repeat containing 40) | 1 | 0.76 | -0.24
LRRC40 (leucine rich repeat containing 40) | 2 | -0.53 | -0.24
LRRC40 (leucine rich repeat containing 40) | 3 | -0.18 | -0.24
LRRC40 (leucine rich repeat containing 40) | 4 | -0.3 | -0.24
LRRC40 (leucine rich repeat containing 40) | 5 | -1.06 (active) | -0.24

The results go on:
Target gene,siRNA no.,"TNF reporter z-score, replicate mean","z-score, median over gene's siRNAs"
CALM3 (calmodulin 3),1,1.07,1.14
CALM3 (calmodulin 3),2,1.2,1.14
CALM3 (calmodulin 3),3,0.71,1.14
CALM3 (calmodulin 3),4,4.55 (active),1.14
CALM3 (calmodulin 3),5,2 (active),1.14
CALM3 (calmodulin 3),6,0.86,1.14
SEPTIN11 (septin 11),1,1.16,0.605
SEPTIN11 (septin 11),2,0.28,0.605
SEPTIN11 (septin 11),3,0.93,0.605
SEPTIN11 (septin 11),4,1.36,0.605
SEPTIN11 (septin 11),5,-0.27,0.605
SEPTIN11 (septin 11),6,0.27,0.605
MRC1 (mannose receptor C-type 1),1,1.76 (active),-0.3
MRC1 (mannose receptor C-type 1),2,-0.37,-0.3
MRC1 (mannose receptor C-type 1),3,-0.59,-0.3
MRC1 (mannose receptor C-type 1),4,-0.34,-0.3
MRC1 (mannose receptor C-type 1),5,2.95 (active),-0.3
MRC1 (mannose receptor C-type 1),6,-0.26,-0.3
SPANXN5 (SPANX family member N5),1,0.72,0.255
SPANXN5 (SPANX family member N5),2,0.23,0.255
SPANXN5 (SPANX family member N5),3,-0.1,0.255
SPANXN5 (SPANX family member N5),4,0.28,0.255
SPANXN5 (SPANX family member N5),5,0.09,0.255
SPANXN5 (SPANX family member N5),6,0.41,0.255
ABI1 (abl interactor 1),1,-0.22,0
ABI1 (abl interactor 1),2,0.22,0
ABI1 (abl interactor 1),3,0.33,0
ABI1 (abl interactor 1),4,-0.75,0
ABI1 (abl interactor 1),5,0.91,0
ABI1 (abl interactor 1),6,-0.79,0
